Among the data in PMC6868398 are binding values, retold here.

The chains behind the UniProt entries cited, without tags or fusion partners. Where a name states a change or a piece, a line headed by the entry shows the natural chain unless it says otherwise.
UniProt Q17963: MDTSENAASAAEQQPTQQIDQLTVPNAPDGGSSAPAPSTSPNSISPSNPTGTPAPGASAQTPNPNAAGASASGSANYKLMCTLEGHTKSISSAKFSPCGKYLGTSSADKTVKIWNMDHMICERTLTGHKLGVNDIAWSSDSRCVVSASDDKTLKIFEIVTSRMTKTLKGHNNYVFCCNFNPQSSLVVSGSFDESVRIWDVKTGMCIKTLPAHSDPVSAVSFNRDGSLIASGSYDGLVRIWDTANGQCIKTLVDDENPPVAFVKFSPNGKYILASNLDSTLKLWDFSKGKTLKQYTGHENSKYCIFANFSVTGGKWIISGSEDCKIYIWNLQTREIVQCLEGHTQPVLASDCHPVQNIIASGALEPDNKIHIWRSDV
UniProt Q18221: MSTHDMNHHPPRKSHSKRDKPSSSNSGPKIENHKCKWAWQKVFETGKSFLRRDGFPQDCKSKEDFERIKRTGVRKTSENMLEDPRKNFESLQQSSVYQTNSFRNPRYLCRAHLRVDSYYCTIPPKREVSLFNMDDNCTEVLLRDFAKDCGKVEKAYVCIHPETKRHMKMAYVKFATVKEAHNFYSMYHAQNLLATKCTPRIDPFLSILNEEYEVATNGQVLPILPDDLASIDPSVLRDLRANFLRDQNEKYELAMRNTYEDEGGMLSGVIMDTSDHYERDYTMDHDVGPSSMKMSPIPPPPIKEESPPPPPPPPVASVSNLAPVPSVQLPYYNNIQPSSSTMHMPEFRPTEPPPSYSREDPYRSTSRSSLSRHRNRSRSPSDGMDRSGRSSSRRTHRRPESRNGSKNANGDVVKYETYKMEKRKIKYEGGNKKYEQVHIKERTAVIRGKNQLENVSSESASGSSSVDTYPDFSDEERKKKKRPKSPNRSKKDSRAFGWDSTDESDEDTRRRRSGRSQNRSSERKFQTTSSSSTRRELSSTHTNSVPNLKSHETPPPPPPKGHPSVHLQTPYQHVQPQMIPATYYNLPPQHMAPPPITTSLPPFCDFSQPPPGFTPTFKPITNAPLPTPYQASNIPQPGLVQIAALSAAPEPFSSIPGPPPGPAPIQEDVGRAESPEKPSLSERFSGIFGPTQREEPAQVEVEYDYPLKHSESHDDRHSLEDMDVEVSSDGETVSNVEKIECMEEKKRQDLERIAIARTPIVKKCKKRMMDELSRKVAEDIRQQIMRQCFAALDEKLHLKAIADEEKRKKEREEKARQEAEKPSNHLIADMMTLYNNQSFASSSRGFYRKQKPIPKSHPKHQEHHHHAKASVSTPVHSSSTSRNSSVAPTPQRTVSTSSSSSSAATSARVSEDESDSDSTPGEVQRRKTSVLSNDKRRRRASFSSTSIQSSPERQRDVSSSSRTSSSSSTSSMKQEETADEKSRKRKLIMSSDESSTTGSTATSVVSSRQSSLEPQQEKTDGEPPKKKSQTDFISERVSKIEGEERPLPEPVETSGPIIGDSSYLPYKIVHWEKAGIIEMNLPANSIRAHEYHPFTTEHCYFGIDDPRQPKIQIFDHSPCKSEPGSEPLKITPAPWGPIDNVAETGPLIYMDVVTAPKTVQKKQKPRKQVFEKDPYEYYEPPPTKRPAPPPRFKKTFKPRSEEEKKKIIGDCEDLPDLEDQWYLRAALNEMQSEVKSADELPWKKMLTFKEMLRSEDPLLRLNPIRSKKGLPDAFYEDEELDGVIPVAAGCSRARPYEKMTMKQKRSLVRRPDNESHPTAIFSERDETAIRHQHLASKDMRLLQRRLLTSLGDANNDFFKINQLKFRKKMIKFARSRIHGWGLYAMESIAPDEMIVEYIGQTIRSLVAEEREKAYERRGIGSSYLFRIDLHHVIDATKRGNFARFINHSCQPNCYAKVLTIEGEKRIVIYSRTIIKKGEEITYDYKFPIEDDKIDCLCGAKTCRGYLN
UniProt A5JYW9: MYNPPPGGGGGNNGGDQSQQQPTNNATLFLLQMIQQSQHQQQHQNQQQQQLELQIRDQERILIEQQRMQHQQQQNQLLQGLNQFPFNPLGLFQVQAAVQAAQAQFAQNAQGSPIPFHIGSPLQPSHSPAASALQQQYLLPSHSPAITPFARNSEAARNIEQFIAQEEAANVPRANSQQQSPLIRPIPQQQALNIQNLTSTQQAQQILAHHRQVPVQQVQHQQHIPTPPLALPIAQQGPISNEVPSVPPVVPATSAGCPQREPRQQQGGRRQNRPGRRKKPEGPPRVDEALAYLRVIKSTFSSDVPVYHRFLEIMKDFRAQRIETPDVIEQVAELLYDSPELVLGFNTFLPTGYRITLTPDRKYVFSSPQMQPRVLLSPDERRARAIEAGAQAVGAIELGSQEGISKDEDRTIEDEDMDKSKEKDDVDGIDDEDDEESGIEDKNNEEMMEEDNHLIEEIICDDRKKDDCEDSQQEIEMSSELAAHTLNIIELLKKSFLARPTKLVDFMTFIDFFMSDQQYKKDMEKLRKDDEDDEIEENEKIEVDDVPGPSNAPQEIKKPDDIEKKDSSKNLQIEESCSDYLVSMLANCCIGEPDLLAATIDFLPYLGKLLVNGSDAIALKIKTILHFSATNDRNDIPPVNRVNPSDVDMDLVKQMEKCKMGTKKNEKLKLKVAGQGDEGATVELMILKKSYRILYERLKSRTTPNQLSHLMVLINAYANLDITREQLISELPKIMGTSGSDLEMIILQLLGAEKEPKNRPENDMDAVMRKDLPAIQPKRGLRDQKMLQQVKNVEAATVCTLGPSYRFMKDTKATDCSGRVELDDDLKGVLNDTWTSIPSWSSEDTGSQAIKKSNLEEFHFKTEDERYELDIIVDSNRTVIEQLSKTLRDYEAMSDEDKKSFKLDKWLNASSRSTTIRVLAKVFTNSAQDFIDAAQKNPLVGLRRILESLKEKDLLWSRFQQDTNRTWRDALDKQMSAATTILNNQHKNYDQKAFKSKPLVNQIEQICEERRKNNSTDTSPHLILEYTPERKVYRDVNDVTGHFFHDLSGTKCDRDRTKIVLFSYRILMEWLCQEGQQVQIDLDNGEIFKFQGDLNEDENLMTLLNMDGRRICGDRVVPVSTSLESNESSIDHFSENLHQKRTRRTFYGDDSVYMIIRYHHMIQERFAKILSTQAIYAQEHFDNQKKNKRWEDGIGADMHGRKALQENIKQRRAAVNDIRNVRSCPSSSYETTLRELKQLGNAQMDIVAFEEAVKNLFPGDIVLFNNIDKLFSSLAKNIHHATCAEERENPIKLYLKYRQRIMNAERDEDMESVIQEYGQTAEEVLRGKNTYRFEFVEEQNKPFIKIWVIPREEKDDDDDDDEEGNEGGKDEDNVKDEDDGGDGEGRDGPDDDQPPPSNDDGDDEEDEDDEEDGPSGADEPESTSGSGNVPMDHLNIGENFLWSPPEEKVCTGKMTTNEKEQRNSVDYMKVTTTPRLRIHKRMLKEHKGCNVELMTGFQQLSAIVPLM
UniProt Q18605: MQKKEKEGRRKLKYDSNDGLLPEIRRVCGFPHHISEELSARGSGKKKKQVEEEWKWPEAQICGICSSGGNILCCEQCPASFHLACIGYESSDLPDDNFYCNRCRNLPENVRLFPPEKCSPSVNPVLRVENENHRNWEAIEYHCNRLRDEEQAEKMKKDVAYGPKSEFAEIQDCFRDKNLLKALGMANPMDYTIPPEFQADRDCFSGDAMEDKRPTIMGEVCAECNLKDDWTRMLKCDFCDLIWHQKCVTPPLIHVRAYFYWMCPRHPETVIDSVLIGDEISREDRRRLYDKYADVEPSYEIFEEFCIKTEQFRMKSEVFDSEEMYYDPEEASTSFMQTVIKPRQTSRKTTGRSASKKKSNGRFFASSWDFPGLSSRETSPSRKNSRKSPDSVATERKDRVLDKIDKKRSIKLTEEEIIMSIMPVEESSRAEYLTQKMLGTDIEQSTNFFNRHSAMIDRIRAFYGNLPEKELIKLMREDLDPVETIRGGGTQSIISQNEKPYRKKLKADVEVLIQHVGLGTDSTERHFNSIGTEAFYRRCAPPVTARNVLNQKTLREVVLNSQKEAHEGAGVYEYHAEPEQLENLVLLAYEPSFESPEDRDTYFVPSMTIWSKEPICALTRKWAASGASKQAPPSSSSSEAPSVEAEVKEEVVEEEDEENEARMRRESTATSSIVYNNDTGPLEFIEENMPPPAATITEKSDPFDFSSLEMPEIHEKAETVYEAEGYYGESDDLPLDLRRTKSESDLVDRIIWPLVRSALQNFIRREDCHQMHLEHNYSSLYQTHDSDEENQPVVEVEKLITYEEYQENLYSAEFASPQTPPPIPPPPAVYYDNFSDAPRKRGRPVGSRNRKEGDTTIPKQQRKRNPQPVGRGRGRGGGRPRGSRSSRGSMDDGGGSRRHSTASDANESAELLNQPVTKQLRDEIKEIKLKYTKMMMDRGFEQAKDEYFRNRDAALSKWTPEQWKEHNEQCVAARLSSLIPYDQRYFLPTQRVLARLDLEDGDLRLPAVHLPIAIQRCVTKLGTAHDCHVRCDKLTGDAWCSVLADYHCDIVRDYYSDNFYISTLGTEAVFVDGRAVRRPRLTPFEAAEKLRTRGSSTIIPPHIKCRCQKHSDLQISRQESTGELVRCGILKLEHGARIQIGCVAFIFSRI
UniProt O17695: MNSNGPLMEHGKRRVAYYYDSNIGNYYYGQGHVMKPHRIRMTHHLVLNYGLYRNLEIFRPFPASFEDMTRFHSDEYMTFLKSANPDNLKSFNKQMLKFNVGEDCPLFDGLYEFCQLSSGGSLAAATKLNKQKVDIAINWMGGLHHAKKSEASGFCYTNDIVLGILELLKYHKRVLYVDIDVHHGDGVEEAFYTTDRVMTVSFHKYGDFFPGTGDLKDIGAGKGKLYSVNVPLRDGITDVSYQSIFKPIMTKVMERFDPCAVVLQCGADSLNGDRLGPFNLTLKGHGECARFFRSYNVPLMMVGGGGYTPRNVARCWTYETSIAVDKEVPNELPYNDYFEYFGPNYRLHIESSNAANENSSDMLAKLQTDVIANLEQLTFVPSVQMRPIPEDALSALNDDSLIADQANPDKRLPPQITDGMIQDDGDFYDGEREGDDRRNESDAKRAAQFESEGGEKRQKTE

These are yes or no findings as the source states them, for the method shown. In cells and extracts the contact can be indirect. These calls come from enrichment with a bait or labelling near it, and not all partners need be listed. For part of these data: Tags and fused reporters may be left off the sequences shown.

B1: HCF-1 (protein, UniProt G5EC23 1-782)
chain: MDEDVGLEATNYSRGDESRSEEQEKNVVRWRIVQQSTGPNPKPRHGHRAVVLKELIVIFGGGNEGMIDELHAYNTQKREWTAPQCCGDVPTPAAAFGAISLGNKIYRFGGMTEYGKYTNDLYELQSTRWEWRRLNPRVHSNGHLPCPRIGHSFVVSQKSQKAYVFGGLSNDLNDPKRNVPHYLDDLYVINLSGPQHLIWEKLNATGPGPISRESHTAVIYEKDSISRMVVYGGMNGVRLGDLWYLNLNTLHWTEIKFDDPRTGIPPMPRSLHSSVLIGDKMFVYGGWVPLLEHASTEQQTEKEWKCTSSLGCWNITEDRWVPLHLYCSDEDTIPRGRAGHCAAAVGDRMYIWSGRDGYRKAWSNQVCCRDMWLLDTILPEQPGKVQLGRAGFNSLEISWPIVQGASGYFLQIGFGDAKEQSVSPIKRATTSPRKQPSIVPPSQKETEQSPKKPQGTAPSIISTQGTTYTAPADPKPATDEGGLPQDLFEDTEKNETASPKRSNDAQSADSSTCEQKKTDESGLEEDSEKDQKPSDAGETDEMKEENGDDDLPWFDVGIIDKATINVTHYFNDRQQSLEKQLNDLIDHNAFKCVNDSVFTTEDKIPLINGQSYRFRVSAINGLGKGAWSETASCKTCVPGYPSAPSSIRITKSHEGAQLTWEPPSNTNISGKIIEYSVYLAVKNQSANSADSQLAFMRVYCGPQADCQVLQSNLGTAFVDQTNKPAIIFRIAARNEKGYGPATQVRWLQDQQKIPVRTNYPNNSGFIYQQHGGQQKRARFDHQ
B2: MRG-1 (protein, UniProt A7DTF0 1-337)
chain: MSSKKNFEVGENVACIYKGKPYDAKITDIKTNSDGKELYCVHFKGWNNRYDEKIPVGEEKDRIFKGTASEYAEKHNAELPTTALKPKKKSLAAEAPRDDRDDTPGTSKGKKAKSVTIAPVMTADDMKVELPKPLRKILIDDYDLVCRYFINIVPHEYSVDQIIEDYIKTIPVSNEQMRTVDDLLIEYEEADIKITNLALICTARGLVDYFNVTLGSSYQLLYKFERPQYNDLVKKRAMEKGIDITNPTALQDSGFRPSQEYGIVHFLRMLAKLPDYLKLTQWNDHVINRIMIGVHDLIVFLNKNHGKYYRGSSDYQGASNDYYRRSLAADDGVGANQ

One assay addresses HA::WDR-5.1 (C. elegans) (UniProt Q17963). Put plainly: affinity purification with mass spectrometry; HA::WDR-5.1 precipitated with anti-HA affinity matrix from about 60 mg embryo extract (strain PFR506); IP buffer with 300 mM KCl, benzonase, HA peptide elution; nanoLC-MS/MS; wild-type (N2) embryos as negative control.
As to B1, the binding entry was “binds”.

Consider B2, for which the binding result is on record as “binds”.

For another assay, the target named is T1, CFP-1::GFP (C. elegans) (UniProt Q9XUE7).
T1 sequence: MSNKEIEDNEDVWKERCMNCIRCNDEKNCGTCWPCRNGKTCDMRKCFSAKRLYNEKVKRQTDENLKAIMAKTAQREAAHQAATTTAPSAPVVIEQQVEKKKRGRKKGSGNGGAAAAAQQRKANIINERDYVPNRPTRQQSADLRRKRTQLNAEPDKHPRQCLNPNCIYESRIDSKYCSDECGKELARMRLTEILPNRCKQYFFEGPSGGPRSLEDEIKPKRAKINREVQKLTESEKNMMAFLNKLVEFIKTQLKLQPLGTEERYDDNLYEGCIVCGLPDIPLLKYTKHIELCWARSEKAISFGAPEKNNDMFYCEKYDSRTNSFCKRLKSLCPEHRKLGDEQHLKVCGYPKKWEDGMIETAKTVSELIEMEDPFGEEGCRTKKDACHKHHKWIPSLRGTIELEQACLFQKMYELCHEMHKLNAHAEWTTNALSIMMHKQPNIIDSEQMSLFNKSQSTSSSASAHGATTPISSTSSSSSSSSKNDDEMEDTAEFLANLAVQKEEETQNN
Put plainly: affinity purification with mass spectrometry; CFP-1::GFP precipitated with GFP-TRAP MA beads from about 70 mg late stage embryo extract (strain PFR572); IP buffer with 300 mM KCl, benzonase; nanoLC-MS/MS; wild-type (N2) embryos as negative control.
Consider SET-2 (from UniProt Q18221 1-1507), for which the binding entry was “binds”.

In the case of SIN-3 (from UniProt A5JYW9 1-1507), the binding result is “binds”.

Take “ATHP-1 (AT Hook plus PHD finger transcription factor) (from UniProt Q18605)”: the binding result is given as “binds”.

On to HDA-1 (from UniProt O17695 1-461), for which the binding entry is on record as “binds”.

B1: the binding entry is on record as “binds”.

As to B2, the binding result is reported as “binds”.

In another assay the target is HA::WDR-5.1 (C. elegans) (UniProt Q17963). Put plainly: affinity purification with mass spectrometry; HA::WDR-5.1 precipitated with anti-HA affinity matrix from about 60 mg embryo extract (strain PFR506); IP buffer with 300 mM KCl, benzonase, HA peptide elution; nanoLC-MS/MS; wild-type (N2) embryos as negative control. The source holds these as a separate data set.
As to SET-2 (from UniProt Q18221 1-1507), the binding result is given as “binds”.

SIN-3 (from UniProt A5JYW9 1-1507): the binding entry is “binds”.

Regarding “ATHP-1 (AT Hook plus PHD finger transcription factor) (from UniProt Q18605)”, the binding result was “binds”.

On to HDA-1 (from UniProt O17695 1-461), for which the binding entry is listed as “binds”.
